Measurements reported in patent US20100041694A1, “AGRICULTURAL COMPOSITION FOR CONTROLLING OR PREVENTING PLANT DISEASES CAUSED BY PLANT PATHOGENIC MICROBES” (Sumitomo Chemical Company, Limited, priority 2007, published 2010).
Some results were stated once for a whole list of compounds, not compound by compound.

Legend:
Assay type in all cases: in vivo
Sclerotinia sclerotiorum = assay: Preventing infection by cucumber Sclerotinia rot, foliage application; details: cucumber (Sagami-Hanjiro), flowable formulation 500 ppm foliage application, then inoculation; 18° C. high humidity 4 days
Fusarium oxysporum = assay: Preventing infection by tomato wilt by soil treatment (irrigation); details: tomato (Patio) in contaminated soil, 10 mg compound per pot by soil irrigation, 1 month
[1] = tested on: Verticillium albo-atrum, V. dahliae, V. nigrescens; assay: Potato blue stem, soil irrigation treatment; details: potato (Danshaku) in contaminated soil, 10 mg compound per pot by soil irrigation, 2 months
Gibberella fujikuroi = assay: Rice bakanae disease, seed treatment; details: contaminated unhulled rice, seed treatment 200 g compound per 100 kg seeds, 1 month
Gaeumannomyces graminis = assay: Malt damping off, seed treatment; details: contaminated malt seeds, seed treatment 200 g compound per 100 kg seeds, 1 month

Row | Structure (SMILES) | infected areas of treated plants relative to infected areas of untreated plants (Sclerotinia sclerotiorum) [%] | blotches in treated plants (Fusarium oxysporum) | growth of treated plants (Fusarium oxysporum) | blotches in treated plants [1] | growth of treated plants [1] | growth of treated plants (Gibberella fujikuroi) | growth of treated plants (Gaeumannomyces graminis)
1 | O=C(NCc1ccc(Cc2ccccc2)cc1)c1ccc2ncccc2c1 [Compound 21] | ≤ 10 | no blotches are found | favorably grow at a level equivalent to that of plants that grow have in noncontaminated soil | no blotches are found | favorably grow at a level equivalent to that of plants that grow in noncontaminated soil | favorably grow at a level equivalent to that of plants that have grown from noncontaminated unhulled rice | favorably grow at a level equivalent to that of plants that grow from noncontaminated seeds
2 | O=C(NCc1cccc(Cc2ccccc2)c1)c1ccc2ncccc2c1 [Compound 22] | ≤ 10 | no blotches are found | favorably grow at a level equivalent to that of plants that grow have in noncontaminated soil | no blotches are found | favorably grow at a level equivalent to that of plants that grow in noncontaminated soil | favorably grow at a level equivalent to that of plants that have grown from noncontaminated unhulled rice | favorably grow at a level equivalent to that of plants that grow from noncontaminated seeds
3 | O=C(NCc1cnc(Oc2ccccc2)s1)c1ccc2ncccc2c1 [Compound 27] | ≤ 10 | no blotches are found | favorably grow at a level equivalent to that of plants that grow have in noncontaminated soil | no blotches are found | favorably grow at a level equivalent to that of plants that grow in noncontaminated soil | favorably grow at a level equivalent to that of plants that have grown from noncontaminated unhulled rice | favorably grow at a level equivalent to that of plants that grow from noncontaminated seeds
4 | O=C(NCc1ccc(OCc2cccc(F)c2)cc1)c1ccc2ncsc2c1 [Compound 34] | ≤ 10 | no blotches are found | favorably grow at a level equivalent to that of plants that grow have in noncontaminated soil | no blotches are found | favorably grow at a level equivalent to that of plants that grow in noncontaminated soil | favorably grow at a level equivalent to that of plants that have grown from noncontaminated unhulled rice | favorably grow at a level equivalent to that of plants that grow from noncontaminated seeds
5 | O=C(NCc1ccc(Oc2cccc(F)c2)s1)c1ccc2ncsc2c1 [Compound 35] | ≤ 10 | no blotches are found | favorably grow at a level equivalent to that of plants that grow have in noncontaminated soil | no blotches are found | favorably grow at a level equivalent to that of plants that grow in noncontaminated soil | favorably grow at a level equivalent to that of plants that have grown from noncontaminated unhulled rice | favorably grow at a level equivalent to that of plants that grow from noncontaminated seeds
6 | O=C(NCc1cccc(Cl)c1)c1ccc2ncccc2c1 [Compound 41] | ≤ 10 | no blotches are found | favorably grow at a level equivalent to that of plants that grow have in noncontaminated soil | no blotches are found | favorably grow at a level equivalent to that of plants that grow in noncontaminated soil | favorably grow at a level equivalent to that of plants that have grown from noncontaminated unhulled rice | favorably grow at a level equivalent to that of plants that grow from noncontaminated seeds
7 | O=C(Cc1ccc(OCc2ccccc2)cc1)Nc1ccc2ncccc2c1 [Compound 44] | ≤ 10 | no blotches are found | favorably grow at a level equivalent to that of plants that grow have in noncontaminated soil | no blotches are found | favorably grow at a level equivalent to that of plants that grow in noncontaminated soil | favorably grow at a level equivalent to that of plants that have grown from noncontaminated unhulled rice | favorably grow at a level equivalent to that of plants that grow from noncontaminated seeds
8 | O=C(Cc1ccccc1)Nc1ccc2ncccc2c1 [Compound 45] | ≤ 10 | no blotches are found | favorably grow at a level equivalent to that of plants that grow have in noncontaminated soil | no blotches are found | favorably grow at a level equivalent to that of plants that grow in noncontaminated soil | favorably grow at a level equivalent to that of plants that have grown from noncontaminated unhulled rice | favorably grow at a level equivalent to that of plants that grow from noncontaminated seeds
9 | O=C(NCc1cccc(C(F)(F)F)c1)c1ccc2ncccc2c1 [Compound 49] | ≤ 30 | no blotches are found | favorably grow at a level equivalent to that of plants that grow have in noncontaminated soil | no blotches are found | favorably grow at a level equivalent to that of plants that grow in noncontaminated soil | favorably grow at a level equivalent to that of plants that have grown from noncontaminated unhulled rice | favorably grow at a level equivalent to that of plants that grow from noncontaminated seeds
10 | S=C(NCc1ccc(Oc2ccccc2)s1)c1ccc2ncccc2c1 [Compound 50] | ≤ 10 | no blotches are found | favorably grow at a level equivalent to that of plants that grow have in noncontaminated soil | no blotches are found | favorably grow at a level equivalent to that of plants that grow in noncontaminated soil | favorably grow at a level equivalent to that of plants that have grown from noncontaminated unhulled rice | favorably grow at a level equivalent to that of plants that grow from noncontaminated seeds
11 | COc1cccc(CNC(=O)c2ccc3ncccc3c2)c1OC [Compound 51] | ≤ 30 | no blotches are found | favorably grow at a level equivalent to that of plants that grow have in noncontaminated soil | no blotches are found | favorably grow at a level equivalent to that of plants that grow in noncontaminated soil | favorably grow at a level equivalent to that of plants that have grown from noncontaminated unhulled rice | favorably grow at a level equivalent to that of plants that grow from noncontaminated seeds
12 | Cc1ccccc1CNC(=O)c1ccc2ncccc2c1 [Compound 53] | ≤ 10 | no blotches are found | favorably grow at a level equivalent to that of plants that grow have in noncontaminated soil | no blotches are found | favorably grow at a level equivalent to that of plants that grow in noncontaminated soil | favorably grow at a level equivalent to that of plants that have grown from noncontaminated unhulled rice | favorably grow at a level equivalent to that of plants that grow from noncontaminated seeds
13 | O=C(NCc1cccc(OC(F)(F)F)c1)c1ccc2ncccc2c1 [Compound 55] | ≤ 10 | no blotches are found | favorably grow at a level equivalent to that of plants that grow have in noncontaminated soil | no blotches are found | favorably grow at a level equivalent to that of plants that grow in noncontaminated soil | favorably grow at a level equivalent to that of plants that have grown from noncontaminated unhulled rice | favorably grow at a level equivalent to that of plants that grow from noncontaminated seeds
14 | CCOc1ccc(CNC(=O)c2ccc3ncccc3c2)cc1 [Compound 57] | ≤ 10 | no blotches are found | favorably grow at a level equivalent to that of plants that grow have in noncontaminated soil | no blotches are found | favorably grow at a level equivalent to that of plants that grow in noncontaminated soil | favorably grow at a level equivalent to that of plants that have grown from noncontaminated unhulled rice | favorably grow at a level equivalent to that of plants that grow from noncontaminated seeds
